# Source: patent publication US10875834B2, “Prodrug and protected forms of 5-hydroxymethylfurfuranal (5-HMF) and its derivatives” (VIRGINIA COMMONWEALTH UNIVERSITY, priority 2016, dated 2020)
# Some of these results come from one statement about several compounds together.
# Tested on: homozygous sickle red blood cells (SS cells)
# Experiment: Antisickling (RBC morphology) study under hypoxia
# Type: cell-based, human
# Settings: 2 mM
# Protocol: Briefly, blood suspensions from a subject with homozygous SCD (hematocrit: 20%) were incubated under air in the absence or presence of 1, 2 and 5 mM concentration of test compounds at 37° C. for 1 hr to ensure that binding had attained equilibrium. Following, the suspensions were incubated under hypoxic condition (4% oxygen/96% nitrogen) at 37° C. for 2 hr. Aliquot samples were fixed with 2% glutaraldehyde solution without exposure to air, and then subjected to microscopic morphological analysis. The residual samples were washed in phosphate-buffered saline, and hemolyzed in hypotonic lysis buffer for subsequent analyses.
smiles,measurement,value
"CCCOCc1ccc(C=O)o1 [VZHE015, 5-(Propoxymethyl)-2-furan Carboxadehyde]",improvement in antisickling activity compared to 5-HMF,1.5-to 4.0 fold
